Results are given in words; binding and its absence hold for the method and conditions named. In cells and extracts the contact can be indirect. A result given as binding can be weak or reduced; the word gives no strength. Sequences can lack the tags named with a protein.
Molecular target: T1, TXN1-6×His (thioredoxin 1) (UniProt P10599)
T1 sequence: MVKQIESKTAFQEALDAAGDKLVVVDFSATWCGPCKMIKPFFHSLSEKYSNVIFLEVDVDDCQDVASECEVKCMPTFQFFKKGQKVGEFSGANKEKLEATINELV
Assay: cross-linking; live HEK293T cells transfected with the His-tagged bait, 0.5 mM BVSB or PDES (1 h at 4°C and 2 h at RT, in PBS); lysis in 8 M urea, Ni-NTA, trypsin, SCX fractions; cross-linked peptides identified by LC-MS/MS (pLink2)

β-tublin (human (endogenous in HEK293T))
binding: binds

Source: PMC9986639
